PubChem BioAssay AID1259254 – NCATS | 2017

Screen: 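Gene knock-downs that lead to re-replication, shown by excess G2 DNA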 (primary screen)
Cells: human HCT116 colorectal cancer cells
Knock-down reagent: single siRNA against human genes
Time to read-out: 3 days
Detection: 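Nuclei stained with Hoechst and imaged; cell-cycle phase assigned by DNA content; G2 share scaled per plate, non-targeting siRNA 0%, GMNN siRNA 100%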
Scale: G2 robust z-score: higher = more G2 cells, more excess DNA replication
Rule for the call: 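Active siRNAs have a G2 robust z of 5 or more median absolute deviations over the median, which in these data means about 38% or higher of GMNN control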
The deposit covers about 59,000 reagents; below is a random part of them. Over the whole deposit, about 1,550 (2.6%) are marked active. 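G2 share is only a proxy for re-replication; each gene was hit by three separate siRNAs, and active genes were retested.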 Unmarked entries are inactive. The numbers tell different reagents against one gene apart. Further read-outs or replicates are left out here. Not stated in the record: the amount of reagent.

Against CCNF (cyclin F) #1 the deposit lists G2 robust z-score 0.581.
With knock-down of CCNF (cyclin F) #2, the screen gave G2 robust z-score 1.97.
For CCNF (cyclin F) #3, the values are G2 robust z-score -0.676.
Silencing of DPEP3 (dipeptidase 3) #1 came out at: G2 robust z-score -1.14.
DPEP3 (dipeptidase 3) #2 scored G2 robust z-score -0.504.
DPEP3 (dipeptidase 3) #3 gave G2 robust z-score -0.0912.
ZNF774 (zinc finger protein 774) #1 showed G2 robust z-score -0.725.
ZNF774 (zinc finger protein 774) #2 scored G2 robust z-score -0.971.
After knock-down of ZNF774 (zinc finger protein 774) #3, the screen gave G2 robust z-score -0.184.
Depletion of ILF2 (interleukin enhancer binding factor 2) #1 resulted in: G2 robust z-score 0.746.
Knock-down of ILF2 (interleukin enhancer binding factor 2) #2 gave: G2 robust z-score 4.36.
For ILF2 (interleukin enhancer binding factor 2) #3 the deposit lists G2 robust z-score 0.0722.
Against SPATA31H1 (SPATA31 subfamily H member 1) #1 the deposit lists G2 robust z-score -0.789.
Silencing of SPATA31H1 (SPATA31 subfamily H member 1) #2 gave: G2 robust z-score 1.16.
Knock-down of SPATA31H1 (SPATA31 subfamily H member 1) #3 came out at: G2 robust z-score -1.06.
PLEKHA8P1 (pleckstrin homology domain containing A8 pseudogene 1) #1 scored G2 robust z-score -0.704.
Knock-down of PLEKHA8P1 (pleckstrin homology domain containing A8 pseudogene 1) #2 came out at: G2 robust z-score -0.588.
With knock-down of PLEKHA8P1 (pleckstrin homology domain containing A8 pseudogene 1) #3, the screen gave G2 robust z-score 2.3.
BRF2 (BRF2 general transcription factor IIIB subunit) #1 gave G2 robust z-score -0.367.
Depletion of BRF2 (BRF2 general transcription factor IIIB subunit) #2 gave: G2 robust z-score -0.377.
Against BRF2 (BRF2 general transcription factor IIIB subunit) #3 the deposit lists G2 robust z-score -0.204.
After knock-down of MATN3 (matrilin 3) #1, the record shows G2 robust z-score 1.74.
MATN3 (matrilin 3) #2 showed G2 robust z-score -0.455.
With knock-down of MATN3 (matrilin 3) #3 the results were G2 robust z-score -0.104.
